No constants are given. Whether binding was seen depends on the method and setting. In cells and extracts the contact can be indirect. Some binding calls cover weakened binding; strength is not graded here.
Legend:
[1] = molecular target: Mindbomb-1 (Mib1), endogenous in mouse gastrocnemius muscle (mouse (endogenous in gastrocnemius muscle)) (UniProt Q80SY4); test: co-IP; endogenous IP from GA muscle lysates of 3-month-old WT mice with anti-Mib1 and anti-Actn3 antibody; mouse and rabbit IgG as nonspecific control
[2] = molecular target: Mindbomb-1 (Mib1), tagged full-length mouse construct expressed in transfected cells (mouse) (UniProt Q80SY4); test: co-IP; immunoprecipitation of tagged Mib1 and Actn3 (Supplementary Fig. 3a); IP buffer 0.5% or 0.05% Nonidet P-40, 2 mM EDTA, 10% glycerol in PBS; overnight at 4 °C

Amino acid sequences for entries named in this document (tags omitted).
UniProt Q80SY4: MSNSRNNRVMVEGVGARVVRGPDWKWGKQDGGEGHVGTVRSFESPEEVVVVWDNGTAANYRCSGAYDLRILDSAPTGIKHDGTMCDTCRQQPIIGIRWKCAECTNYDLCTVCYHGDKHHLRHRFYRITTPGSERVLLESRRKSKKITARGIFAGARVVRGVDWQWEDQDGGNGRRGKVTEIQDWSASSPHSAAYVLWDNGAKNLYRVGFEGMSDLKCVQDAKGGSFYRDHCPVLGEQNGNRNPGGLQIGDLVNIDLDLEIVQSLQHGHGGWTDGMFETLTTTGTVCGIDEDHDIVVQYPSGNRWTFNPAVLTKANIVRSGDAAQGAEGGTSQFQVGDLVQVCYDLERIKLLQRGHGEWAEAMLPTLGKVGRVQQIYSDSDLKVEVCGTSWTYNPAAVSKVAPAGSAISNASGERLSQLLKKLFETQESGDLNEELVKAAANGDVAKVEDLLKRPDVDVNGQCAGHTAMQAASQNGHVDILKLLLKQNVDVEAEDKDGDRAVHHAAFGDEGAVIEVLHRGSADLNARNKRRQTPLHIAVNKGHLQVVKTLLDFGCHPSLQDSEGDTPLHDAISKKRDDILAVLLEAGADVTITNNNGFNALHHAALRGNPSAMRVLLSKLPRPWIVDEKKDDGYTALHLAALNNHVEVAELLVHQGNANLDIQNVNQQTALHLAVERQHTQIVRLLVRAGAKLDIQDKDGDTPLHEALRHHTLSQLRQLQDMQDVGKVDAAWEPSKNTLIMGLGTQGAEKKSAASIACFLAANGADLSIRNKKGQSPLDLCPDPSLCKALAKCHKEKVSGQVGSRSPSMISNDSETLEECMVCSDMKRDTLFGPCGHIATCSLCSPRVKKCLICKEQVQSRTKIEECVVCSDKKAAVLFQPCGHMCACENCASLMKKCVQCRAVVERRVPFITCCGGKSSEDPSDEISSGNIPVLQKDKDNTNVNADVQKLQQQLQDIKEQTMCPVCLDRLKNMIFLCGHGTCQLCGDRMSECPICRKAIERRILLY
UniProt O88990: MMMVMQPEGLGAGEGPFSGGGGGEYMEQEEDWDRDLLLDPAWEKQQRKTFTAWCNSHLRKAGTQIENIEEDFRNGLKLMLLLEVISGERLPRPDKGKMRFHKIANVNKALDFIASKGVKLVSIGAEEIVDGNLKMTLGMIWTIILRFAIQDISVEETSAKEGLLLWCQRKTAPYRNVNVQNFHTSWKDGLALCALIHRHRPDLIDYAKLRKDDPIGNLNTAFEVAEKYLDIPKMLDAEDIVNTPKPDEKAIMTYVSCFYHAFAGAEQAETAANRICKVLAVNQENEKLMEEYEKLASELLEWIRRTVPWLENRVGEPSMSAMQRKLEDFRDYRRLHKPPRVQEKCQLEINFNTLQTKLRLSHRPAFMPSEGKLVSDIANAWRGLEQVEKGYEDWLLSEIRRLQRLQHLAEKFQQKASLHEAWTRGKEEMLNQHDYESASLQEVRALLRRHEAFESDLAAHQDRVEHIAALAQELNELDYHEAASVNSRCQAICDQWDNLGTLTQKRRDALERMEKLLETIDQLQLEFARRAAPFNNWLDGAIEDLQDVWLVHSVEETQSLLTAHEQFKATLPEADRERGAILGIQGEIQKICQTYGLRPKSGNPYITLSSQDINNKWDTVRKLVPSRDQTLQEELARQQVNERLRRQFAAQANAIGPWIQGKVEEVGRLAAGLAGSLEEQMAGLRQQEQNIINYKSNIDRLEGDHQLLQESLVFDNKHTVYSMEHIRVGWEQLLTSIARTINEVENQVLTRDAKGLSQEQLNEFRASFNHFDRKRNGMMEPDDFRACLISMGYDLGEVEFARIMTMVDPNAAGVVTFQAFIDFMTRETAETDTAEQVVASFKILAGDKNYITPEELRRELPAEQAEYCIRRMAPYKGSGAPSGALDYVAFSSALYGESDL

α-actinin 3 (Actn3), endogenous in mouse gastrocnemius muscle (from UniProt O88990 1-900)
binding [1]: binds

α-actinin 3 (Actn3)-MycHis, full-length mouse construct expressed in transfected cells (from UniProt O88990 1-900)
binding [2]: binds

Reference: paper PMC7910585
